Laboratory results as given in PubChem BioAssay (EPA / NIEHS).
Where “and” joins values, the source holds several entries; their conditions need not be identical. Identical values can stand only once. Inconclusive results, whose numbers are uncertain, are shown with a selection of clear calls. Potencies beside an inconclusive call are fits to weak or partial responses and may not hold up. Calls of active or inactive are those of the source. How the source made its calls: active means hit-call score of the fitted dose curve at least 0.9, where 1 is the maximum; inconclusive means response in the unintended direction; inactive means score below 0.9.

Test system: zebrafish Peroxisome Proliferator-activated Receptor gamma (PPARg), gene 557037
Assay: ATG_zfPPARg_XSP2: Attagene TRANS-FACTORIAL Multi-Species (XSP2) HepG2 Assay for zebrafish Peroxisome Proliferator-activated Receptor gamma (PPARg) (AID 2283833);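 further: reporter mRNA from a zebrafish PPARg GAL4 chimera measured by RT-PCR and capillary electrophoresis; actives increase reporter signal over DMSO so AC50 reflects activation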
How it was run: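 HepG2 cells transiently transfected with multiplexed GAL4-UAS reporter units expressing chimeric NR-Gal4 receptors, dosed 24 h. Reporter mRNA quantified by RT-PCR, fluorescent labelling, HpaI digestion and capillary electrophoresis; gain of signal fitted against DMSO.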

| Compound | outcome | AC50 |
| --- | --- | --- |
| Oc1ccc(Cl)cc1Cc1ccccc1 | inactive | – |
| CON(C)C(=O)Nc1ccc(Cl)c(Cl)c1 | inactive | – |
| CC1(C)C(C=C(Cl)Cl)C1C(=O)OC(C#N)c1ccc(F)c(Oc2ccccc2)c1 (configuration not stated) | – | active: 19.8 µM |
| CCC(CC)Nc1c([N+](=O)[O-])cc(C)c(C)c1[N+](=O)[O-] | – | inconclusive: 100 µM |
| CC(C)(C)c1cc(O)ccc1O | inactive | – |
| O=S(=O)(c1ccc(Cl)cc1)c1ccc(Cl)cc1 | – | inconclusive: 100 µM |
| CCCCCOC(=O)c1ccccc1C(=O)OCCCCC | – | active: 174 µM |
| CCOCN(C(=O)CCl)c1c(C)cccc1CC | – | inconclusive: 165 µM |
| ClC(Cl)=C(c1ccc(Cl)cc1)c1ccc(Cl)cc1 | – | inconclusive: 10 µM |
| COCCl | – | inconclusive: 35 µM |
| CC(C)(O)C(=O)Nc1ccc([N+](=O)[O-])c(C(F)(F)F)c1 | – | inconclusive: 100 µM |
| COc1ccc(C(=CC(=O)N2CCOCC2)c2ccc(Cl)cc2)cc1OC | – | inconclusive: 100 µM |
| COP(=S)(OC)Oc1nc(Cl)c(Cl)cc1Cl | – | inconclusive: 100 µM |
| C#CCOS(=O)OC1CCCCC1Oc1ccc(C(C)(C)C)cc1 (configuration not stated) | inactive | – |
| COP(=S)(OC)Oc1ccc([N+](=O)[O-])cc1 | inactive | inconclusive: 100 µM |
| CCCOCC(=Nc1ccc(Cl)cc1C(F)(F)F)n1ccnc1 | inactive | – |
| O=S(=O)(c1ccc(O)cc1)c1ccc(O)cc1 | – | inconclusive: 179 µM and inconclusive: 82.3 nM |
| C=C(C)CN(CC)c1c([N+](=O)[O-])cc(C(F)(F)F)cc1[N+](=O)[O-] | inactive | – |
| Nc1c(Cl)cc([N+](=O)[O-])cc1Cl | – | inconclusive: 100 µM |
| COP(=O)(OC)O/C(=C\Cl)c1cc(Cl)c(Cl)cc1Cl | – | active: 47.3 µM |
| CCC[CH2][Sn]([Cl])([CH2]CCC)[CH2]CCC | inactive | – |
| O=c1oc2ccccc2c(O)c1C(CC(O)c1ccc(-c2ccc(Br)cc2)cc1)c1ccccc1 (configuration not stated) | – | active: 6.09 µM |
| CC(C)(C)C(O)(CCc1ccc(Cl)cc1)Cn1cncn1 (configuration not stated) | inactive | – |
| Cc1c(COC(=O)[C@@H]2[C@H](/C=C(\Cl)C(F)(F)F)C2(C)C)cccc1-c1ccccc1 | – | inconclusive: 100 µM |
| CCCN(CCC)c1c([N+](=O)[O-])cc(C(F)(F)F)cc1[N+](=O)[O-] | – | inconclusive: 100 µM |
| C[C@]12C=CC3=C4CCC(=O)C=C4CC[C@H]3[C@@H]1CC[C@@H]2O | – | inconclusive: 0.1 µM |

Test system: turtle Thyroid Hormone Receptor, alpha (TRa), gene 101949057
Assay: ATG_trTRa_XSP2: Attagene TRANS-FACTORIAL Multi-Species (XSP1) HepG2 Assay for turtle Thyroid Hormone Receptor, alpha (TRa) (AID 2283834);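 further: hits raise reporter mRNA over the DMSO baseline so AC50 marks activators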
How it was run: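 HepG2 cells transiently transfected with GAL4-UAS reporter units for chimeric turtle TRa-Gal4; mRNA measured 24 h after dosing by RT-PCR and capillary electrophoresis fluorescence, gain of signal fitted against DMSO.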

| Compound | outcome | AC50 |
| --- | --- | --- |
| Oc1ccc(Cl)cc1Cc1ccccc1 | inactive | – |
| CCC(CC)Nc1c([N+](=O)[O-])cc(C)c(C)c1[N+](=O)[O-] | – | inconclusive: 100 µM |
| Clc1ccc(C(c2ccccc2Cl)C(Cl)(Cl)Cl)cc1 (configuration not stated) | – | inconclusive: 10 µM |
| CCCCCOC(=O)c1ccccc1C(=O)OCCCCC | inactive | – |
| CCOCN(C(=O)CCl)c1c(C)cccc1CC | – | inconclusive: 173 µM |
| COCCl | – | inconclusive: 34.8 µM |
| CC12CC1(C)C(=O)N(c1cc(Cl)cc(Cl)c1)C2=O (configuration not stated) | – | inconclusive: 100 µM |
| C[C@]12CC[C@H](O)CC1=CC[C@@H]1[C@@H]2CC[C@]2(C)C(=O)CC[C@@H]12 | inactive | inconclusive: 0.1 µM |
| COc1ccc(C(=CC(=O)N2CCOCC2)c2ccc(Cl)cc2)cc1OC | – | inconclusive: 100 µM |
| COP(=S)(OC)Oc1nc(Cl)c(Cl)cc1Cl | inactive | – |
| C#CCOS(=O)OC1CCCCC1Oc1ccc(C(C)(C)C)cc1 (configuration not stated) | – | inconclusive: 0.0484 µM |
| CCCOCC(=Nc1ccc(Cl)cc1C(F)(F)F)n1ccnc1 | – | inconclusive: 55.3 µM |
| C=C(C)CN(CC)c1c([N+](=O)[O-])cc(C(F)(F)F)cc1[N+](=O)[O-] | – | inconclusive: 100 µM and inconclusive: 27.1 µM |
| Nc1c(Cl)cc([N+](=O)[O-])cc1Cl | – | active: 23.6 µM and active: 29.8 µM |
| O=[N+]([O-])c1ccc(Oc2ccc(Cl)cc2Cl)cc1 | inactive | inconclusive: 100 µM |
| CCCN(CCC)c1c([N+](=O)[O-])cc(C(F)(F)F)cc1[N+](=O)[O-] | – | inconclusive: 100 µM |
| C[C@]12C=CC3=C4CCC(=O)C=C4CC[C@H]3[C@@H]1CC[C@@H]2O | – | inconclusive: 0.1 µM |

Test system: not listed separately
Assay: ATG_XTT_Cytotoxicity_XSP2: Cytotoxicity Assessment in the Attagene TRANS-FACTORIAL Multi-Species (XSP2) HepG2 Assay (AID 2283837)
How it was run: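 HepG2 cells, transiently transfected with multiple reporter constructs, exposed to chemical for 24 h. Cell number assessed with XTT fluorescence read-out; loss of signal fitted relative to DMSO.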

| Compound | AC50 | outcome |
| --- | --- | --- |
| CCC(CC)Nc1c([N+](=O)[O-])cc(C)c(C)c1[N+](=O)[O-] | inconclusive: 100 µM | – |
| COCCl | inconclusive: 34.8 µM | – |
| CC12CC1(C)C(=O)N(c1cc(Cl)cc(Cl)c1)C2=O (configuration not stated) | inconclusive: 100 µM | – |
| C[C@]12CC[C@H](O)CC1=CC[C@@H]1[C@@H]2CC[C@]2(C)C(=O)CC[C@@H]12 | inconclusive: 100 µM | – |
| C=C(C)CN(CC)c1c([N+](=O)[O-])cc(C(F)(F)F)cc1[N+](=O)[O-] | inconclusive: 16.2 µM | – |
| CC(C)(C)C(O)(CCc1ccc(Cl)cc1)Cn1cncn1 (configuration not stated) | – | inactive |
